Measurements reported in PubChem BioAssay AID1259308 (NCATS, 2017)
The deposit covers about 59,000 reagents; shown is a random part of them. About 1,510 of them (2.6%) were called active. 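Calls use total luciferase alone and ignore viability, so some active siRNAs may act by altering cell number.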 Unmarked entries are inactive. Reagents against one gene are numbered here. No sequences are given here.

Aim: 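Candidate targets for better recombinant protein yield in mammalian cells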 (primary screen)
Cells: human HEK293 embryonic kidney cells stably expressing firefly luciferase (HEK-CMV-Luc2-Hygro)
Reagents: single siRNA against human genes, 0.8 pmol siRNA per well
Time to read-out: 72 h
Read-out: 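Luciferase light (ONE-Glo) measured on one replicate plate set and viability (CellTiter-Glo) on the other, scaled to a negative control siRNA, with robust z-scores and luciferase per cell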
Scale: total luciferase, z-score and total luciferase, % of control: higher = more reporter protein produced; luciferase per cell, z-score: higher = more reporter output per viable cell; viable cells, % of control: higher = more viable cells
Hit rule: 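Active when the median/MAD z-score for overall luciferase is greater than 3; a gene was taken forward for validation with new siRNAs if at least two of its three siRNAs passed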
Meaning of the calls: active = raised luciferase; inactive = no rise

gene knocked down | siRNA no. | total luciferase, z-score | total luciferase, % of control | luciferase per cell, z-score | viable cells, % of control
INCENP (inner centromere protein) | 1 | -1.02 | 61.6 | 0.0493 | 67.9
INCENP (inner centromere protein) | 2 | -1.16 | 58.8 | -1.28 | 92.1
INCENP (inner centromere protein) | 3 | -2.08 | 40.6 | -2.83 | 95.5
SLC25A37 | 1 | 2.14 | 125 | 1.41 | 96
SLC25A37 | 2 | -1.76 | 46.9 | -1.96 | 88
SLC25A37 | 3 | 3.38 (active) | 149 | 3.55 | 65.5
TNFSF15 (TNF superfamily member 15) | 1 | -0.687 | 68.2 | -0.94 | 97.7
TNFSF15 (TNF superfamily member 15) | 2 | 4.42 (active) | 170 | 4.07 | 64.9
TNFSF15 (TNF superfamily member 15) | 3 | 1.92 | 120 | 1.71 | 85.6
IQCE (IQ motif containing E) | 1 | 0.73 | 96.4 | -0.181 | 113
IQCE (IQ motif containing E) | 2 | 1.9 | 120 | 1.08 | 101
IQCE (IQ motif containing E) | 3 | -0.81 | 65.8 | -1.44 | 107
DHX57 (DExH-box helicase 57) | 1 | 0.451 | 90.9 | -0.123 | 105
DHX57 (DExH-box helicase 57) | 2 | 0.657 | 94.9 | 0.0714 | 104
DHX57 (DExH-box helicase 57) | 3 | -0.226 | 77.4 | -0.836 | 108
CACNA1S (calcium voltage-gated channel subunit alpha1 S) | 1 | -0.737 | 67.2 | -0.113 | 77.4
CACNA1S (calcium voltage-gated channel subunit alpha1 S) | 2 | -2.46 | 33 | -3.13 | 84.1
CACNA1S (calcium voltage-gated channel subunit alpha1 S) | 3 | 0.083 | 83.5 | -0.0526 | 94.6
PARS2 (prolyl-tRNA synthetase 2, mitochondrial) | 1 | 0.109 | 84 | 0.865 | 74.8
PARS2 (prolyl-tRNA synthetase 2, mitochondrial) | 2 | -0.25 | 76.9 | 0.769 | 70.2
PARS2 (prolyl-tRNA synthetase 2, mitochondrial) | 3 | 0.292 | 87.7 | -0.097 | 101
ITPK1 (inositol-tetrakisphosphate 1-kinase) | 1 | -0.163 | 78.6 | -0.656 | 104
ITPK1 (inositol-tetrakisphosphate 1-kinase) | 2 | -1.99 | 42.4 | -1.64 | 72.9
ITPK1 (inositol-tetrakisphosphate 1-kinase) | 3 | 0.441 | 90.7 | 0.499 | 88.8
YEATS4 (YEATS domain containing 4) | 1 | 1.36 | 109 | 0.832 | 97.7
YEATS4 (YEATS domain containing 4) | 2 | 0.36 | 89.1 | 0.295 | 92.1
YEATS4 (YEATS domain containing 4) | 3 | 0.336 | 88.6 | 0.00868 | 98.8
FCGRT (Fc gamma receptor and transporter) | 1 | -0.0963 | 80 | 0.0953 | 87.1
FCGRT (Fc gamma receptor and transporter) | 2 | -0.322 | 75.5 | -0.736 | 102
FCGRT (Fc gamma receptor and transporter) | 3 | -0.347 | 75 | -0.354 | 92
DLGAP1-AS5 (DLGAP1 antisense RNA 5) | 1 | 1.08 | 103 | -0.159 | 120
DLGAP1-AS5 (DLGAP1 antisense RNA 5) | 2 | 4.82 (active) | 178 | 3.3 | 83.3
DLGAP1-AS5 (DLGAP1 antisense RNA 5) | 3 | -0.867 | 64.6 | -1.13 | 97.2

Targets listed so far whose target name begins with Y or y (3):
gene knocked down | siRNA no. | total luciferase, z-score | total luciferase, % of control | luciferase per cell, z-score | viable cells, % of control
YEATS4 (YEATS domain containing 4) | 1 | 1.36 | 109 | 0.832 | 97.7
YEATS4 (YEATS domain containing 4) | 2 | 0.36 | 89.1 | 0.295 | 92.1
YEATS4 (YEATS domain containing 4) | 3 | 0.336 | 88.6 | 0.00868 | 98.8

The results go on:
gene knocked down | siRNA no. | total luciferase, z-score | total luciferase, % of control | luciferase per cell, z-score | viable cells, % of control
ZNF546 (zinc finger protein 546) | 1 | 1.12 | 104 | 2.47 | 60.7
ZNF546 (zinc finger protein 546) | 2 | 0.962 | 101 | -0.063 | 115
ZNF546 (zinc finger protein 546) | 3 | -0.0738 | 80.4 | -1.09 | 120
RBFA (ribosome binding factor A) | 1 | 1.25 | 107 | 1.76 | 75.1
RBFA (ribosome binding factor A) | 2 | 0.354 | 88.9 | 0.128 | 96.1
RBFA (ribosome binding factor A) | 3 | 0.0583 | 83 | -0.189 | 97.5
SBSPON (somatomedin B and thrombospondin type 1 domain containing) | 1 | -0.598 | 70 | -0.342 | 85.6
SBSPON (somatomedin B and thrombospondin type 1 domain containing) | 2 | 1.7 | 116 | 1.57 | 85.6
SBSPON (somatomedin B and thrombospondin type 1 domain containing) | 3 | 1.16 | 105 | 0.528 | 102
LVRN (laeverin) | 1 | -0.834 | 65.3 | -0.644 | 86.4
LVRN (laeverin) | 2 | 0.171 | 85.3 | -0.45 | 107
LVRN (laeverin) | 3 | -1.79 | 46.3 | -2 | 87.6
LRFN3 | 1 | 0.811 | 98 | 0.939 | 85.5
LRFN3 | 2 | -0.685 | 68.3 | -0.579 | 88.8
LRFN3 | 3 | -0.12 | 79.5 | -0.33 | 96.9
TOX2 (TOX high mobility group box family member 2) | 1 | -0.984 | 62.3 | 0.718 | 57.6
TOX2 (TOX high mobility group box family member 2) | 2 | -1.08 | 60.3 | -1.29 | 94.6
TOX2 (TOX high mobility group box family member 2) | 3 | 1.25 | 107 | 0.76 | 97.7
HINT1 (histidine triad nucleotide binding protein 1) | 1 | -0.024 | 81.4 | -0.32 | 99
HINT1 (histidine triad nucleotide binding protein 1) | 2 | 0.0371 | 82.6 | -0.318 | 100
HINT1 (histidine triad nucleotide binding protein 1) | 3 | -0.658 | 68.8 | -0.725 | 93.1
MMP24 (matrix metallopeptidase 24) | 1 | 0.68 | 95.4 | 1.23 | 77.2
MMP24 (matrix metallopeptidase 24) | 2 | -0.44 | 73.1 | 0.139 | 78.8
MMP24 (matrix metallopeptidase 24) | 3 | 5.03 (active) | 182 | 3.54 | 80
